{"source": "patent US9370306B1", "about": "“Methods and devices for in vivo targeted light therapy” (ABBOTT CARDIOVASCULAR SYSTEM INC., priority 2008, dated 2016)", "assay": "Drug degradation using light: percent recovery of Everolimus combined with a photosensitizer in methanol (HPLC total content assay)", "assay_type": "physicochemical", "note": "At least one read-out could not be matched to a standard name with certainty.", "data": [{"smiles": "CO[C@H]1C[C@@H]2CC[C@@H](C)[C@@](O)(O2)C(=O)C(=O)N2CCCC[C@H]2C(=O)O[C@H]([C@H](C)C[C@@H]2CC[C@@H](OCCO)[C@H](OC)C2)CC(=O)[C@H](C)/C=C(\\C)[C@@H](O)[C@@H](OC)C(=O)[C@H](C)C[C@H](C)/C=C/C=C/C=C/1C", "note": "[Everolimus]", "values": [{"measurement": "difference in percent recovery between exposed (light) and unexposed (dark) samples", "setting": "1.5 mg/ml Everolimus in 18 ml methanol with photosensitizer, 25 mW laser light at photosensitizer-activating wavelength, HPLC total content assay", "value": 3, "unit": "%"}, {"measurement": "reduction in the potency of Everolimus (percent recovery) after the solution was exposed to UV light", "setting": "Everolimus combined with a photosensitizer in methanol, EV+Sensitizer+Light vs EV+Sensitizer+Dark, FIG. 8", "value": "> 3", "unit": "%"}]}]}
